Experimental data published in the supplement of paper PMC4604168 (melanoma cell lines).
This is one part of the list. Repeats are few or missing, and single values can be far off.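 Imaging used 1,536-well plates; nuclei positive for cleaved PARP by antibody were divided by total DNA-stained nuclei to yield the apoptosis fraction. Doses for screening kept most cells viable, and cell lines differ markedly in resting and induced cleaved-PARP levels.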

How the values were obtained:
Experiment in all cases: cleaved PARP positive nuclei fraction relative to DMSO control; melanoma cells; higher = more apoptosis
Conditions in all cases: library dose: low library concentration; 72 h
501Mel = tested on: 501Mel
A101D = tested on: A101D
A2058 = tested on: A2058
A375 = tested on: A375
C32 = tested on: C32
CBRC008 = tested on: CBRC008 (line from a melanoma biopsy)
CBRC014 = tested on: CBRC014 (line from a melanoma biopsy)
CBRC016 = tested on: CBRC016 (line from a melanoma biopsy)
CBRC017 = tested on: CBRC017 (line from a melanoma biopsy)
CBRC034 = tested on: CBRC034 (line from a melanoma biopsy)
COLO792 = tested on: COLO792
COLO800 = tested on: COLO800
COLO829 = tested on: COLO829
G361 = tested on: G361
IPC-298 = tested on: IPC-298
IST-MEL1 = tested on: IST-MEL1
LB2518-MEL = tested on: LB2518-MEL
LOXIMVI = tested on: LOXIMVI
MEL-HO = tested on: MEL-HO

Compound | cleaved PARP positive nuclei fraction (501Mel) [%] | cleaved PARP positive nuclei fraction (A101D) [%] | cleaved PARP positive nuclei fraction (A2058) [%] | cleaved PARP positive nuclei fraction (A375) [%] | cleaved PARP positive nuclei fraction (C32) [%] | cleaved PARP positive nuclei fraction (CBRC008) [%] | cleaved PARP positive nuclei fraction (CBRC014) [%] | cleaved PARP positive nuclei fraction (CBRC016) [%] | cleaved PARP positive nuclei fraction (CBRC017) [%] | cleaved PARP positive nuclei fraction (CBRC034) [%] | cleaved PARP positive nuclei fraction (COLO792) [%] | cleaved PARP positive nuclei fraction (COLO800) [%] | cleaved PARP positive nuclei fraction (COLO829) [%] | cleaved PARP positive nuclei fraction (G361) [%] | cleaved PARP positive nuclei fraction (IPC-298) [%] | cleaved PARP positive nuclei fraction (IST-MEL1) [%] | cleaved PARP positive nuclei fraction (LB2518-MEL) [%] | cleaved PARP positive nuclei fraction (LOXIMVI) [%] | cleaved PARP positive nuclei fraction (MEL-HO) [%]
Cc1ccc(Nc2nccc(N(C)c3ccc4c(C)n(C)nc4c3)n2)cc1S(N)(=O)=O [Pazopanib] + COCC[n+]1c2c(n(Cc3cnccn3)c1C)C(=O)c1ccccc1C2=O [YM155] (first compound 0.4 µM, partner dose 0.0004 µM) | 69.3 | 91 | 81 | 87.1 | 68.3 | 630 | 96.8 | 144 | 76.7 | 42 | 70.6 | 294 | 70.3 | 74.4 | 200 | 144 | 157 | 89.6 | 58.2
O=c1[nH]nc(Sc2ncc([N+](=O)[O-])s2)n1-c1ccc2c(c1)OCCO2 + C=CCNC1=C2C[C@@H](C)C[C@H](OC)[C@H](O)[C@@H](C)/C=C(\C)[C@H](OC(N)=O)[C@@H](OC)/C=C\C=C(/C)C(=O)NC(=CC1=O)C2=O [Tanespimycin] (first compound 0.2 µM, partner dose 0.002 µM) | 88.1 | 198 | 126 | 88.8 | 185 | 334 | 178 | 86.2 | 118 | 70.2 | 55.6 | 86.1 | 112 | 141 | 43.5 | 165 | 135 | 77.5 | 109
CC[C@]1(O)C[C@H]2CN(CCc3c([nH]c4ccccc34)[C@@](C(=O)OC)(c3cc4c(cc3OC)N(C=O)[C@H]3[C@@](O)(C(=O)OC)[C@H](OC(C)=O)[C@]5(CC)C=CCN6CC[C@]43[C@@H]65)C2)C1 [vincristine] + C[C@]1(c2nc3c(C(N)=O)cccc3[nH]2)CCCN1 [Veliparib] (first compound 0.0001 µM, partner dose 1.4 µM) | 86.6 | 212 | 1190 | 387 | 113 | 363 | 131 | 346 | 163 | 46 | 148 | 114 | 159 | 99.4 | 82.7 | 37.3 | 124 | 157 | 36.5
N#CC[C@H](C1CCCC1)n1cc(-c2ncnc3[nH]ccc23)cn1 [ruxolitinib] + CC1(C)CCC(c2ccc(Cl)cc2)=C(CN2CCN(c3ccc(C(=O)NS(=O)(=O)c4ccc(N[C@H](CCN5CCOCC5)CSc5ccccc5)c(S(=O)(=O)C(F)(F)F)c4)cc3)CC2)C1 [ABT263] (first compound 1 µM, partner dose 0.4 µM) | 130 | 391 | 257 | 479 | 96.6 | 567 | 327 | 426 | 368 | 389 | 189 | 34.6 | 142 | 209 | 151 | 87.8 | 365 | 359 | 279
CCCCCCCCCCCCCCCCCCOP(=O)([O-])OC1CC[N+](C)(C)CC1 [Perifosine] + Cn1sc(=O)n(Cc2ccccc2)c1=O [TDZD-8] (first compound 0.4 µM, partner dose 0.4 µM) | 120 | 104 | 121 | 109 | 86.9 | 43.2 | 98.8 | 33.6 | 168 | 54.5 | 121 | 168 | 86.3 | 90.7 | 128 | 163 | 30.9 | 226 | 111
Cc1cc(Nc2cc(N3CCN(C)CC3)nc(Sc3ccc(NC(=O)C4CC4)cc3)n2)n[nH]1 [Tozasertib] + O=C(Nc1cc(C(F)(F)F)cc(C(F)(F)F)c1)c1cc(Cl)ccc1O [IMD0354] (first compound 0.006 µM, partner dose 0.016 µM) | 78.9 | 206 | 199 | 199 | 91 | 55.4 | 105 | 133 | 64.3 | 51.7 | 39.5 | 93.1 | 120 | 83.7 | 61.9 | 66.9 | 224 | 231 | 120
O=C(/C=C/c1cccnc1)NCCCCC1CCN(C(=O)c2ccccc2)CC1 + CO[C@H]1C[C@@H]2CC[C@@H](C)[C@@](O)(O2)C(=O)C(=O)N2CCCC[C@H]2C(=O)O[C@H]([C@H](C)C[C@@H]2CC[C@@H](OCCO)[C@H](OC)C2)CC(=O)[C@H](C)/C=C(\C)[C@@H](O)[C@@H](OC)C(=O)[C@H](C)C[C@H](C)/C=C/C=C/C=C/1C [everolimus] (first compound 0.01 µM, partner dose 0.02 µM) | 166 | 114 | 8.83 | 456 | 152 | 1680 | 139 | 23.3 | 213 | 2070 | 215 | 98.5 | 166 | 4040 | 394 | 101 | 130 | 89.8 | 140
CC[C@]1(O)C[C@H]2CN(CCc3c([nH]c4ccccc34)[C@@](C(=O)OC)(c3cc4c(cc3OC)N(C=O)[C@H]3[C@@](O)(C(=O)OC)[C@H](OC(C)=O)[C@]5(CC)C=CCN6CC[C@]43[C@@H]65)C2)C1 [vincristine] + NC(=O)c1ccc(N(C(N)=O)c2c(F)cccc2F)nc1-c1ccc(F)cc1F [VX702] (first compound 0.0001 µM, partner dose 0.4 µM) | 50.5 | 194 | 1310 | 135 | 743 | 238 | 112 | 743 | 122 | 43.7 | 119 | 82.2 | 169 | 145 | 117 | 72.2 | 111 | 31.7 | 35.9
N#CC[C@H](C1CCCC1)n1cc(-c2ncnc3[nH]ccc23)cn1 [ruxolitinib] + Nc1ncn([C@H]2C[C@H](O)[C@@H](CO)O2)c(=O)n1 [decitabine] (first compound 1 µM, partner dose 0.1 µM) | 67.3 | 29.3 | 110 | 192 | 71.3 | 88.2 | 100 | 83.4 | 115 | 30.3 | 123 | 16.5 | 158 | 180 | 114 | 127 | 107 | 172 | 119
N#CC[C@H](C1CCCC1)n1cc(-c2ncnc3[nH]ccc23)cn1 [ruxolitinib] + CN1CCN(c2ccc3nc(-c4c(N)c5c(F)cccc5[nH]c4=O)[nH]c3c2)CC1 [Dovitinib] (first compound 1 µM, partner dose 0.1 µM) | 96.9 | 83.6 | 112 | 56.2 | 70.9 | 71.2 | 80.1 | 253 | 84 | 351 | 64.3 | 88.7 | 52.2 | 148 | 102 | 61.4 | 170 | 42.3 | 62.7
O=c1[nH]nc(Sc2ncc([N+](=O)[O-])s2)n1-c1ccc2c(c1)OCCO2 + CCN(CC)CCNC(=O)c1c(C)[nH]c(/C=C2\C(=O)Nc3ccc(F)cc32)c1C [sunitinib] (first compound 0.2 µM, partner dose 0.4 µM) | 78.8 | 177 | 172 | 221 | 81.6 | 173 | 95.7 | 242 | 111 | 61.8 | 89.6 | 228 | 104 | 50.9 | 86 | 305 | 109 | 63 | 202
O=c1[nH]nc(Sc2ncc([N+](=O)[O-])s2)n1-c1ccc2c(c1)OCCO2 + COc1ccc(Cl)c(Nc2nc3ccccc3nc2NS(=O)(=O)c2cccc(NC(=O)C(C)(C)N)c2)c1 [XL147] (first compound 0.2 µM, partner dose 0.8 µM) | 144 | 75.7 | 102 | 119 | 250 | 287 | 108 | 288 | 137 | 120 | 85 | 195 | 155 | 108 | 92 | 135 | 74.2 | 89 | 117
CCCCCCCCCCCCCCCCCCOP(=O)([O-])OC1CC[N+](C)(C)CC1 [Perifosine] + Clc1ccc(Nc2nnc(Cc3ccncc3)c3ccccc23)cc1 [vatalanib] (first compound 0.4 µM, partner dose 2 µM) | 108 | 130 | 82.1 | 157 | 79.6 | 63.5 | 115 | 85.2 | 101 | 74 | 100 | 86.3 | 92 | 197 | 92.1 | 33 | 102 | 61.8 | 102
N#CC[C@H](C1CCCC1)n1cc(-c2ncnc3[nH]ccc23)cn1 [ruxolitinib] + O=C(Nc1cc(C(F)(F)F)cc(C(F)(F)F)c1)c1cc(Cl)ccc1O [IMD0354] (first compound 1 µM, partner dose 0.016 µM) | 102 | 36 | 129 | 251 | 61.9 | 186 | 94.2 | 154 | 99.2 | 134 | 173 | 96.5 | 38.4 | 160 | 182 | 69 | 134 | 125 | 82.7
O=C(Nc1cc(C(F)(F)F)cc(C(F)(F)F)c1)c1cc(Cl)ccc1O + C[C@]1(O)C[C@@H](c2nc(-c3ccc4ccc(-c5ccccc5)nc4c3)c3c(N)nccn32)C1 [OSI906] (first compound 0.016 µM, partner dose 0.4 µM) | 127 | 67.9 | 104 | 317 | 75.7 | 180 | 116 | 293 | 128 | 121 | 87.6 | 108 | 60.6 | 143 | 142 | 142 | 289 | 115 | 142
O=c1[nH]nc(Sc2ncc([N+](=O)[O-])s2)n1-c1ccc2c(c1)OCCO2 + O=C(O)c1ccc2c(c1)nc(Nc1cccc(Cl)c1)c1ccncc12 [CX4945] (first compound 0.2 µM, partner dose 0.4 µM) | 41.2 | 77.6 | 72.8 | 102 | 69.1 | 70.5 | 121 | 139 | 137 | 218 | 45.9 | 60.9 | 118 | 145 | 176 | 55.9 | 98.7 | 185 | 40.4

Some of the entries so far, comma-delimited:
Compound,cleaved PARP positive nuclei fraction (501Mel) [%],cleaved PARP positive nuclei fraction (A101D) [%],cleaved PARP positive nuclei fraction (A2058) [%],cleaved PARP positive nuclei fraction (A375) [%],cleaved PARP positive nuclei fraction (C32) [%],cleaved PARP positive nuclei fraction (CBRC008) [%],cleaved PARP positive nuclei fraction (CBRC014) [%],cleaved PARP positive nuclei fraction (CBRC016) [%],cleaved PARP positive nuclei fraction (CBRC017) [%],cleaved PARP positive nuclei fraction (CBRC034) [%],cleaved PARP positive nuclei fraction (COLO792) [%],cleaved PARP positive nuclei fraction (COLO800) [%],cleaved PARP positive nuclei fraction (COLO829) [%],cleaved PARP positive nuclei fraction (G361) [%],cleaved PARP positive nuclei fraction (IPC-298) [%],cleaved PARP positive nuclei fraction (IST-MEL1) [%],cleaved PARP positive nuclei fraction (LB2518-MEL) [%],cleaved PARP positive nuclei fraction (LOXIMVI) [%],cleaved PARP positive nuclei fraction (MEL-HO) [%]
"N#CC[C@H](C1CCCC1)n1cc(-c2ncnc3[nH]ccc23)cn1 [ruxolitinib] + CN1CCN(c2ccc3nc(-c4c(N)c5c(F)cccc5[nH]c4=O)[nH]c3c2)CC1 [Dovitinib] (first compound 1 µM, partner dose 0.1 µM)",96.9,83.6,112,56.2,70.9,71.2,80.1,253,84,351,64.3,88.7,52.2,148,102,61.4,170,42.3,62.7
"O=c1[nH]nc(Sc2ncc([N+](=O)[O-])s2)n1-c1ccc2c(c1)OCCO2 + CCN(CC)CCNC(=O)c1c(C)[nH]c(/C=C2\C(=O)Nc3ccc(F)cc32)c1C [sunitinib] (first compound 0.2 µM, partner dose 0.4 µM)",78.8,177,172,221,81.6,173,95.7,242,111,61.8,89.6,228,104,50.9,86,305,109,63,202
"O=c1[nH]nc(Sc2ncc([N+](=O)[O-])s2)n1-c1ccc2c(c1)OCCO2 + COc1ccc(Cl)c(Nc2nc3ccccc3nc2NS(=O)(=O)c2cccc(NC(=O)C(C)(C)N)c2)c1 [XL147] (first compound 0.2 µM, partner dose 0.8 µM)",144,75.7,102,119,250,287,108,288,137,120,85,195,155,108,92,135,74.2,89,117
